Test results published in PubChem BioAssay AID504467 (National Center for Advancing Translational Sciences (NCATS), 2011).
Out of some 330,000 compounds screened, about 7,700 (2.3%) were called active. This list was built around the results that the source calls inconclusive (neither active nor inactive); the mix of calls is not that of the screen. Calls follow the shape of the dose curve; as a rule, active = well fitted inhibition curve with a large enough effect; inconclusive = small, poorly fitted or top-dose-only effect, or effect the other way; inactive = flat fitted curve, though single readings scatter. Potencies beside an inconclusive call are fits to weak or partial responses and may not hold up.

assay: qHTS screen for small molecules that inhibit ELG1-dependent DNA repair in human embryonic kidney (HEK293T) cells expressing luciferase-tagged ELG1; settings: HEK293T ELG1-luciferase reporter, luminescence, 16 h, DNA damage induced by 5-fluorouridine; activity change, negative = inhibition: at 46.1 µM (top of the series); also: nearly all actives have a fitted effect of over 55% in size
How it was run: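 Cells (2,000 per well) received 5-fluorouridine plus test compound or DMSO and were incubated 16 hr at 37 °C, 5% CO2. Luciferase activity was read by luminescence 30 min after ONE-Glo addition; signal suppression marked inhibition of damage-induced ELG1 function.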
% is scaled to controls: 0 for no effect and ±100 for the full control effect; potency is read from the fitted curve at half-maximal effect.

Row | Compound | Potency | activity change, negative = inhibition
1 | CC(=O)Nc1ccc(C2=NNC(=NCC3CCCO3)SC2)cc1 (stereo not drawn) | inconclusive: 3.66 µM [inhibitor, single point] | 
2 | O=S1(=O)CC/C(=N/Nc2ccc(C(F)(F)F)cn2)c2cc(F)ccc21 | inconclusive: 23.1 µM [inhibitor, partial curve] | 
3 | COC(=O)c1ccc(C)c(NC(=S)NCc2ccc(Cl)cc2)c1 |  | inactive: 1.78%
4 | CCN(CC(=O)NCc1ccc(Cl)cc1)C(=O)CSc1ccccc1F |  | inactive: 9.28%
5 | Cc1cc(C)cc(-n2cccc2/C=C2/C(=N)N3C(=NC2=O)SN=C3S(C)(=O)=O)c1 |  | inactive: -16%
6 | COc1ccc(S(=O)(=O)NNC(=O)C23CC4CC(CC(C4)C2)C3)cc1[N+](=O)[O-] |  | inactive: 6.63%
7 | COc1ccc(-c2noc(COc3ccccc3OC)n2)cc1OC |  | inactive: -14.4%
8 | CC(C)(C)c1ccc(C(=O)Nc2ccc(CC(=O)O)cc2)o1 |  | inactive: 0.164%
9 | COc1ccc(C(=O)OCC(=O)Nc2cccc(C(C)=O)c2)c(OC)c1OC | inconclusive: 14.6 µM [inhibitor, partial curve, poor fit] | 
10 | Cc1c(Cl)cccc1NC(=O)NCc1cccnc1 | inconclusive: 32.6 µM [activator, partial curve, poor fit] | 
11 | COc1ccccc1NC(=O)c1ccc(C)c(S(=O)(=O)N2CCCCC2)c1 | inconclusive: 23.1 µM [inhibitor, single point] | 
12 | CCOc1ccc(NC(=O)Cc2ccc(S(=O)(=O)N3CCOCC3)s2)cc1OCC | inconclusive: 4.61 µM [inhibitor, full curve] | 
13 | Cn1cc(CN2CCC(n3nccc3NC(=O)CCOc3ccccc3)CC2)cn1 |  | inactive: 15.3%
14 | Cc1ccc(S(=O)(=O)N2CCC(C(=O)N3CCN(Cc4ccccc4)CC3)CC2)cc1 |  | inactive: -12.3%
15 | Cc1ccc(C(C)C)c(OCC(O)CNC2CCCC2)c1 (stereo not drawn) |  | inactive: -7.28%
16 | CCc1nc2ccc(C(=O)N3CCN(c4ccc([N+](=O)[O-])cc4)CC3)cc2nc1CC | inconclusive: 16.4 µM [inhibitor, partial curve, poor fit] | 
17 | S=C(c1ccc(-c2cccc(Cl)c2)o1)N1CCCCC1 | inconclusive: 9.2 µM [activator, partial curve] | 
18 | CCCn1c(C)cc(/C=C(\C#N)C(=O)OCC(=O)NC(=O)NC(C)(C)C)c1C |  | inactive: 2.74%
19 | CN1CCN(Cc2nc3ccccc3c(=O)n2Cc2nc(-c3ccc([N+](=O)[O-])cc3)cs2)CC1 | inconclusive: 10.3 µM [inhibitor, partial curve] | 
20 | O=C(CSc1nc2ccccc2s1)NNC(=S)Nc1ccc(Br)cc1 |  | inactive: 1.23%
21 | NNC(=O)c1cccc(COc2ccc(Br)cc2)c1 | inconclusive: 0.731 µM [activator, full curve] | 
22 | CSc1nncc(/C(C)=N\Nc2ccccc2)n1 | inconclusive: 20.6 µM [activator, partial curve, poor fit] | 
23 | CCCn1c(C)cc(=O)c2cc(NC(=O)c3cnccn3)ccc21 |  | inactive: -4.62%
24 | NC(=O)C1Cc2ccccc2CN1S(=O)(=O)c1ccc(Cl)s1 (stereo not drawn) |  | inactive: -3.2%
25 | CC1CCN(Cc2nc(Cl)c3c4c(sc3n2)CCC4)CC1 | inconclusive: 5.17 µM [activator, full curve, poor fit] | 

A draw from above in order of molecular weight, falling.
Row | Compound | Potency | activity change, negative = inhibition
14 | Cc1ccc(S(=O)(=O)N2CCC(C(=O)N3CCN(Cc4ccccc4)CC3)CC2)cc1 |  | inactive: -12.3%
5 | Cc1cc(C)cc(-n2cccc2/C=C2/C(=N)N3C(=NC2=O)SN=C3S(C)(=O)=O)c1 |  | inactive: -16%
21 | NNC(=O)c1cccc(COc2ccc(Br)cc2)c1 | inconclusive: 0.731 µM [activator, full curve] | 
15 | Cc1ccc(C(C)C)c(OCC(O)CNC2CCCC2)c1 (stereo not drawn) |  | inactive: -7.28%

Next results follow.

Row | Compound | Potency | activity change, negative = inhibition
26 | COc1ccccc1NC(=O)c1cc2c(=O)n(C)c3ccccc3c2n1C | inconclusive: 25.9 µM [inhibitor, single point] | 
27 | CCn1cnc2sc(-c3ccccc3)cc2c1=O | inconclusive: 5.8 µM [activator, partial curve] | 
28 | O=C(NCc1ccccc1)c1cc2ccccc2oc1=O | inconclusive: 18.3 µM [activator, partial curve] | 
29 | CC(=O)N1CCN(c2ccc(NCc3ccco3)cc2)CC1 | inconclusive: 20.6 µM [activator, partial curve, poor fit] | 
30 | CCCCCC(=O)Nc1cccc(C2=NOC3(C2)C[C@@H](C(N)=O)N(C(=O)c2ccc(Cl)cc2)C3)c1 (stereo partly drawn) | inconclusive: 32.6 µM [inhibitor, partial curve, poor fit] | 
31 | C=CCn1c(O)c(N=O)c2cc(C)ccc21 |  | inactive: 2.33%
32 | O=C(C1=NN(c2ccccc2)C2C(=O)N(c3ccccc3Cl)C(=O)C12)c1ccccc1 (stereo not drawn) |  | inactive: 15.5%
33 | N#CC1=C(N)Oc2c(oc(CO)cc2=O)C1c1ccsc1 (stereo not drawn) |  | inactive: -6.65%
34 | CC1(C)CC(NC(=O)c2ccccc2)CC(C)(C)N1 |  | inactive: 0.657%
35 | O=C(COc1ccccc1)NC1=NCCS1 | inconclusive: 23.1 µM [activator, partial curve] | 
36 | O=C(Cn1nnc2ccccc2c1=O)N[C@H](C(=O)O)c1ccccc1 |  | inactive: 14.7%
37 | CCCCn1nc(C(=O)Nc2ccc(S(=O)(=O)Nc3ncccn3)cc2)c2ccccc2c1=O | inconclusive: 6.51 µM [activator, partial curve, poor fit] | 
38 | Cc1cccc(C(=O)Nc2cccc(OCC(=O)O)c2)c1 |  | inactive: -5.8%
39 | CCOc1ccc(NC(=O)CN(C)CC(=O)NC2CCCc3ccccc32)cc1OCC (stereo not drawn) | inconclusive: 29.1 µM [inhibitor, partial curve, poor fit] | 
40 | COc1cc(-c2nnc(-c3cccnc3)o2)cc(OC)c1OC | inconclusive: 23.1 µM [inhibitor, single point] | 
41 | Cc1cccc(-c2cc3nc4c(c(N5CCCC(O)C5)n3n2)CCC4)c1 (stereo not drawn) | active: 16.4 µM | 
42 | Cc1sc(NC(=O)CSc2nnc(COc3ccc(Cl)cc3)n2C)c(C#N)c1C | inconclusive: 29.1 µM [activator, single point] | 
43 | O=C(C(NS(=O)(=O)c1cccc2nsnc12)c1ccccc1)N1CCN(c2ccccn2)CC1 (stereo not drawn) |  | inactive: -14.9%
44 | COc1cccc(C(=O)N(Cc2nc(-c3cccc(C)c3)no2)C(C)C)c1OC | inconclusive: 13 µM [inhibitor, partial curve] | 
45 | CC(C)NC(=O)NC(=O)COc1ccc(Br)cc1Br | inconclusive: 3.26 µM [activator, partial curve] | 
46 | Cc1cc(C)n(-c2nc(N(c3ccccc3)c3ccccc3)nc(-n3nc(C)cc3C)n2)n1 | active: 25.9 µM | 
47 | O=C1c2cccc3c(N4CCCCC4)ccc(c23)C(=O)N1CCO | inconclusive: 3.66 µM [activator, partial curve, poor fit] | 
48 | Cc1cc(C)nc(N/N=C2/CCCC/C2=C\c2ccccc2)n1 | active: 2.31 µM | 
49 | Cn1cccc1CNC(=O)Nc1ccc(Cl)cc1 | inconclusive: 14.6 µM [activator, partial curve] | 
50 | COc1ccc(-n2c(CN3CCN(Cc4ccccc4)CC3)nc3ccc([N+](=O)[O-])cc3c2=O)c(OC)c1 |  | inactive: 6.46%

Row | Compound | Potency | activity change, negative = inhibition
51 | COc1ccc(OCC(O)CNC(=O)/C=C/c2cccc([N+](=O)[O-])c2)cc1 (stereo not drawn) | inconclusive: 13 µM [inhibitor, partial curve, poor fit] | 
52 | O=C(CSc1nnc2c(n1)[nH]c1ccccc12)NCc1ccco1 | inconclusive: 20.6 µM [inhibitor, single point] | 
53 | COc1cccc(-c2ccc(C#N)c(SCC(=O)NCCc3ccc(Cl)cc3)n2)c1 | inconclusive: 20.6 µM [activator, single point] | 
54 | Oc1ccccc1N1CCN(C(c2ccccc2)c2ccccc2)CC1 |  | inactive: 2.22%
55 | CCc1ccccc1NC(=O)CN1CCN(CC(=O)NCc2ccc(Cl)cc2)CC1 | inconclusive: 16.4 µM [inhibitor, partial curve, poor fit] | 
56 | Cc1cccc(NC(=O)C2CCN(S(=O)(=O)c3ccc4c(c3)NC(=O)CO4)CC2)c1C |  | inactive: -1.55%
57 | COc1ccc(C)cc1NC(=O)CSc1nnc(-c2ccc(Br)cc2)o1 | inconclusive: 18.4 µM [inhibitor, partial curve, poor fit] | 
58 | C/C(=N\Nc1nnc(-c2ccccc2)c(-c2ccccc2)n1)c1cccc([N+](=O)[O-])c1 | inconclusive: 20.6 µM [activator, partial curve] | 
59 | Cc1cc(C(=O)NC2CCCc3c2cnn3-c2ccccc2F)nc(C)n1 (stereo not drawn) | active: 13 µM | 
60 | O=C(CNC(=O)c1ccc(F)cc1)c1ccccc1 | inconclusive: 3.66 µM [activator, full curve] | 
61 | Cc1ccsc1CN(C)CC(=O)NCC(=O)Nc1ccc(F)cc1 |  | inactive: 5.94%
62 | Cc1ccc(CS(=O)(=O)c2ccc(C(=O)N3CCN(c4ccccn4)CC3)cc2[N+](=O)[O-])cc1 | active: 14.6 µM | 
63 | Cc1cc(C)n(CC(=O)N/N=C/c2ccc([N+](=O)[O-])s2)n1 | active: 14.6 µM | 
64 | N#CC1=C(N)C(C#N)(C#N)C(c2cccnc2)C2CCCC=C12 (stereo not drawn) | active: 7.31 µM | 
65 | O=C(O)c1ccc(/C=C/C(=O)c2ccc3c(c2)OCCCO3)cc1 | inconclusive: 0.73 µM [activator, partial curve] | 
66 | O=C(NCc1ccco1)c1cnn2cccnc12 |  | inactive: 1.29%
67 | COCCNC(=O)c1cc2ncc(Br)cn2n1 | inconclusive: 18.4 µM [activator, single point] | 
68 | Cc1cc(C)cc(NC(=O)Nc2ccccc2N2CCCCC2)c1 | inconclusive: 29.1 µM [inhibitor, single point] | 
69 | CC(O)CNc1nc2c(c(=O)n(C)c(=O)n2C)n1C/C=C/c1ccccc1 (stereo not drawn) | active: 23.1 µM | 
70 | O=C(Nc1ccccn1)c1ccc(COc2ccccc2Cl)o1 | inconclusive: 20.6 µM [activator, partial curve] | 
71 | CS(=O)(=O)N1CCN(c2ccc([N+](=O)[O-])c(NCc3ccc(Cl)cc3)c2)CC1 | inconclusive: 29.1 µM [inhibitor, single point] | 
72 | CC(=O)N/C(=C\c1cccs1)C(=O)O |  | inactive: -4.39%
73 | Cc1ccc(C(=O)OCC(=O)Nc2ccccc2)cc1NC(=O)c1ccco1 | inconclusive: 16.4 µM [activator, single point] | 
